Measurements reported in PubChem BioAssay AID1224831 (NIAID, 2016)

Purpose: 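Retesting screen hits on the TLR4-driven TNF response with six separate siRNAs each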 (follow-up of hits)
Cells: human THP-1 B5 monocytic leukaemia cells carrying a TNF promoter luciferase reporter, made macrophage-like with PMA
Reagent: single siRNA against human genes, 50 nM
Time to read-out: about 68 h of knock-down, then 4 h LPS
Challenge: LPS (Salmonella minnesota, TLR-grade) at 10 ng/ml for 4 h; PMA 5 ng/ml present during knock-down
Measurement: 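TNF promoter reporter read as dual luciferase ratio after 4 h LPS, normalised per plate to its median, given as replicate mean robust z-score per siRNA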
Scale: TNF reporter z-score: higher = stronger LPS-induced TNF reporter signal; z-score, median over gene's siRNAs: higher = stronger TNF reporter signal across the gene's siRNAs
Active means: 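Two-sided call: reduced or raised TNF reporter signal counts as active once mean z reaches about -1 or below, or about 1.5 or above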
Meaning of the calls: active = changed TNF reporter (either direction); inactive = little change
Shown is one part, drawn at random, of about 3,500 reagents tested. 731 of all reagents (21%) were called active. 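Active means either lowered or raised reporter signal; the gene-median score did not drive the per-siRNA calls.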 The numbers tell different reagents against one gene apart. Reagent sequences are not shown.

target gene,siRNA no.,"TNF reporter z-score, replicate mean","z-score, median over gene's siRNAs",outcome
PDCD2 (programmed cell death 2),1,-0.58,-0.3,inactive
PDCD2 (programmed cell death 2),2,-0.02,-0.3,inactive
PDCD2 (programmed cell death 2),3,0.41,-0.3,inactive
PDCD2 (programmed cell death 2),4,-1.16,-0.3,active
PDCD2 (programmed cell death 2),5,0.82,-0.3,inactive
PDCD2 (programmed cell death 2),6,-1.3,-0.3,active
PSMB2 (proteasome 20S subunit beta 2),1,-0.16,-1.29,inactive
PSMB2 (proteasome 20S subunit beta 2),2,-0.93,-1.29,inactive
PSMB2 (proteasome 20S subunit beta 2),3,-1.22,-1.29,active
PSMB2 (proteasome 20S subunit beta 2),4,-1.36,-1.29,active
PSMB2 (proteasome 20S subunit beta 2),5,-1.44,-1.29,active
PSMB2 (proteasome 20S subunit beta 2),6,-1.69,-1.29,active
C5AR2 (complement C5a receptor 2),1,0.23,-0.47,inactive
C5AR2 (complement C5a receptor 2),2,-0.57,-0.47,inactive
C5AR2 (complement C5a receptor 2),3,0.48,-0.47,inactive
C5AR2 (complement C5a receptor 2),4,-0.74,-0.47,inactive
C5AR2 (complement C5a receptor 2),5,-0.76,-0.47,inactive
C5AR2 (complement C5a receptor 2),6,-0.37,-0.47,inactive
FBXO21 (F-box protein 21),1,0.4,0.325,inactive
FBXO21 (F-box protein 21),2,0.09,0.325,inactive
FBXO21 (F-box protein 21),3,0.25,0.325,inactive
FBXO21 (F-box protein 21),4,0.71,0.325,inactive
FBXO21 (F-box protein 21),5,-0.02,0.325,inactive
FBXO21 (F-box protein 21),6,2.22,0.325,active
CCDC92 (coiled-coil domain containing 92),1,1.37,0.695,inactive
CCDC92 (coiled-coil domain containing 92),2,1.57,0.695,active
CCDC92 (coiled-coil domain containing 92),3,0.33,0.695,inactive
CCDC92 (coiled-coil domain containing 92),4,1.06,0.695,inactive
CCDC92 (coiled-coil domain containing 92),5,-0.67,0.695,inactive
CCDC92 (coiled-coil domain containing 92),6,0.24,0.695,inactive
APOC2 (apolipoprotein C2),1,-1.62,-0.115,active
APOC2 (apolipoprotein C2),2,0.61,-0.115,inactive
APOC2 (apolipoprotein C2),3,0.07,-0.115,inactive
APOC2 (apolipoprotein C2),4,-0.3,-0.115,inactive
APOC2 (apolipoprotein C2),5,1.17,-0.115,inactive
APOC2 (apolipoprotein C2),6,-0.5,-0.115,inactive
MEPCE (methylphosphate capping enzyme),1,0.6,0,inactive
MEPCE (methylphosphate capping enzyme),2,-0.15,0,inactive
MEPCE (methylphosphate capping enzyme),3,-0.47,0,inactive
MEPCE (methylphosphate capping enzyme),4,0.15,0,inactive
MEPCE (methylphosphate capping enzyme),5,-0.53,0,inactive
MEPCE (methylphosphate capping enzyme),6,1.33,0,inactive
RELT (RELT TNF receptor),1,1.59,-0.14,active
RELT (RELT TNF receptor),2,0.15,-0.14,inactive
RELT (RELT TNF receptor),3,-0.43,-0.14,inactive
RELT (RELT TNF receptor),4,-1.07,-0.14,active
RELT (RELT TNF receptor),5,-0.76,-0.14,inactive
RELT (RELT TNF receptor),6,0.18,-0.14,inactive
CREB1 (cAMP responsive element binding protein 1),1,-2,0.02,active
CREB1 (cAMP responsive element binding protein 1),2,0.67,0.02,inactive
CREB1 (cAMP responsive element binding protein 1),3,0.08,0.02,inactive
CREB1 (cAMP responsive element binding protein 1),4,-0.04,0.02,inactive
CREB1 (cAMP responsive element binding protein 1),5,-0.36,0.02,inactive
CREB1 (cAMP responsive element binding protein 1),6,2.64,0.02,active

Taken from above:
Result of MEPCE (methylphosphate capping enzyme) #3 in “outcome”: inactive
Under “z-score, median over gene's siRNAs”, CREB1 (cAMP responsive element binding protein 1) #2 shows 0.02
Under “TNF reporter z-score, replicate mean”, FBXO21 (F-box protein 21) #4 shows 0.71
Result of CCDC92 (coiled-coil domain containing 92) #1 under “TNF reporter z-score, replicate mean”: 1.37
APOC2 (apolipoprotein C2) #5, TNF reporter z-score, replicate mean → 1.17
CCDC92 (coiled-coil domain containing 92) #4, TNF reporter z-score, replicate mean → 1.06

The list goes on:
target gene,siRNA no.,"TNF reporter z-score, replicate mean","z-score, median over gene's siRNAs",outcome
MAT2A (methionine adenosyltransferase 2A),1,-0.69,-0.685,inactive
MAT2A (methionine adenosyltransferase 2A),2,-1.3,-0.685,active
MAT2A (methionine adenosyltransferase 2A),3,-1.32,-0.685,active
MAT2A (methionine adenosyltransferase 2A),4,-0.48,-0.685,inactive
MAT2A (methionine adenosyltransferase 2A),5,-0.09,-0.685,inactive
MAT2A (methionine adenosyltransferase 2A),6,-0.68,-0.685,inactive
NEU3 (neuraminidase 3),1,0.85,0.33,inactive
NEU3 (neuraminidase 3),2,-0.45,0.33,inactive
NEU3 (neuraminidase 3),3,-0.82,0.33,inactive
NEU3 (neuraminidase 3),4,-0.17,0.33,inactive
NEU3 (neuraminidase 3),5,0.83,0.33,inactive
NEU3 (neuraminidase 3),6,0.99,0.33,inactive
ICAM2 (intercellular adhesion molecule 2),1,1.28,-0.195,inactive
ICAM2 (intercellular adhesion molecule 2),2,1.18,-0.195,inactive
ICAM2 (intercellular adhesion molecule 2),3,-0.33,-0.195,inactive
ICAM2 (intercellular adhesion molecule 2),4,-1.62,-0.195,active
ICAM2 (intercellular adhesion molecule 2),5,-0.15,-0.195,inactive
ICAM2 (intercellular adhesion molecule 2),6,-0.24,-0.195,inactive
PSMB3 (proteasome 20S subunit beta 3),1,0.53,-0.825,inactive
PSMB3 (proteasome 20S subunit beta 3),2,-0.81,-0.825,inactive
PSMB3 (proteasome 20S subunit beta 3),3,-0.9,-0.825,inactive
PSMB3 (proteasome 20S subunit beta 3),4,-0.84,-0.825,inactive
PSMB3 (proteasome 20S subunit beta 3),5,-1.41,-0.825,active
PSMB3 (proteasome 20S subunit beta 3),6,-0.75,-0.825,inactive
NMNAT2 (nicotinamide nucleotide adenylyltransferase 2),1,-0.06,1.4,inactive
NMNAT2 (nicotinamide nucleotide adenylyltransferase 2),2,-0.7,1.4,inactive
NMNAT2 (nicotinamide nucleotide adenylyltransferase 2),3,1.45,1.4,inactive
NMNAT2 (nicotinamide nucleotide adenylyltransferase 2),4,1.8,1.4,active
NMNAT2 (nicotinamide nucleotide adenylyltransferase 2),5,1.35,1.4,inactive
NMNAT2 (nicotinamide nucleotide adenylyltransferase 2),6,2.88,1.4,active
TMEM176B (transmembrane protein 176B),1,0.42,0.13,inactive
TMEM176B (transmembrane protein 176B),2,0.05,0.13,inactive
TMEM176B (transmembrane protein 176B),3,0.02,0.13,inactive
TMEM176B (transmembrane protein 176B),4,0.21,0.13,inactive
TMEM176B (transmembrane protein 176B),5,1.46,0.13,inactive
TMEM176B (transmembrane protein 176B),6,-0.84,0.13,inactive
RPAP3 (RNA polymerase II associated protein 3),1,0.83,0.785,inactive
RPAP3 (RNA polymerase II associated protein 3),2,0.74,0.785,inactive
RPAP3 (RNA polymerase II associated protein 3),3,0.51,0.785,inactive
RPAP3 (RNA polymerase II associated protein 3),4,0.93,0.785,inactive
RPAP3 (RNA polymerase II associated protein 3),5,-0.18,0.785,inactive
RPAP3 (RNA polymerase II associated protein 3),6,0.91,0.785,inactive
THUMPD2 (THUMP domain 2 tRNA and snRNA guanosine methyltransferase),1,-0.25,0.71,inactive
THUMPD2 (THUMP domain 2 tRNA and snRNA guanosine methyltransferase),2,1.98,0.71,active
THUMPD2 (THUMP domain 2 tRNA and snRNA guanosine methyltransferase),3,-0.49,0.71,inactive
THUMPD2 (THUMP domain 2 tRNA and snRNA guanosine methyltransferase),4,0.08,0.71,inactive
THUMPD2 (THUMP domain 2 tRNA and snRNA guanosine methyltransferase),5,1.34,0.71,inactive
THUMPD2 (THUMP domain 2 tRNA and snRNA guanosine methyltransferase),6,1.47,0.71,inactive
CEP20 (centrosomal protein 20),1,-0.79,-0.23,inactive
CEP20 (centrosomal protein 20),2,0.05,-0.23,inactive
CEP20 (centrosomal protein 20),3,1.14,-0.23,inactive
CEP20 (centrosomal protein 20),4,-0.19,-0.23,inactive
CEP20 (centrosomal protein 20),5,-0.27,-0.23,inactive
CEP20 (centrosomal protein 20),6,-0.64,-0.23,inactive
